{
  "source": "patent US6599933B2",
  "about": "“Tocotrienol derivative, process for producing the same and γ-CEHC delivering agent” (Kenko Corporation, priority 2000, dated 2003)",
  "assay": "Water-solubility test",
  "conditions": "0.250 mmol in 5 ml distilled water, stirred at 20° C. for 24 hours, HPLC",
  "note": "Some results were stated once for a whole list of compounds, not compound by compound.",
  "data": [
    {"smiles": "CC(C)=CCC/C(C)=C/CC/C(C)=C/CC[C@]1(C)CCc2cc(OC(=O)CN(C)C)c(C)c(C)c2O1.Cl", "note": "[d-γ-T3DMA, d-γ-tocotrienol N,N-dimethylaminoacetate hydrochloride]", "values": [
      {"measurement": "solubility in distilled water", "result": "above 50 mM"}
    ]}
  ]
}
